# Percent effect of library compounds

Measurements from “University of Dundee, Small-Polar-MMV Screening Library” (2021), ChEMBL document CHEMBL3988442.

Mtb glucose medium: 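Whole-cell growth test on Mycobacterium tuberculosis, read after 3 days in glucose-containing 7H9 medium; the read-out is not stated. Concentration: 50 µM. Direction is inferred from retests: higher values go with more growth inhibition. Size under these conditions: about 69,000 compounds, about 760 of them at 50% or above in at least one test.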
Mtb cholesterol medium: 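Whole-cell growth test on Mycobacterium tuberculosis, read after 4 days in a medium based on cholesterol and the lipid DPPC; the read-out is not stated. Tested at 50 µM. The record gives no direction; compounds that gave an IC50 in retests scored well above the rest, so higher reads as more growth inhibition. Size under these conditions: about 69,000 compounds, about 370 of them at 50% or above in at least one test.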

Values are the deposited “Percent Effect”, in %. The controls that fix the scale are not given in the record; negative values are as filed. This is an unselected part of the compounds tested. Two or more numbers in one place are separate tests of the same structure; such repeats can differ widely.

| # | SMILES | Mtb glucose medium | Mtb cholesterol medium |
|---|---|---|---|
| 1 | `Cc1cc(=O)n2ncnc2n1CC(O)COCc1ccccc1Cl` (stereo not drawn) | -16.18 | -31.54 |
| 2 | `Clc1ccccc1CCn1ccnc1-c1cn(C2CCNCC2)nn1` | -15.35 | 7.949 |
| 3 | `CC(C)N(Cc1ccccn1)C(=O)CCOc1cccc(F)c1` | 9.302 | 6.182 |
| 4 | `CCN(CC)c1ccc(NS(=O)(=O)c2cnn(C(C)C)c2)cn1` | -20.89 | -20.49 & -10.59 |
| 5 | `c1ccc(CCNC2CCc3ncnn3C2)nc1` (stereo not drawn) | -31.28 | -7.205 |
| 6 | `COc1ccc(C(C)(C)C(=O)NCc2n[nH]c(=O)[nH]2)cc1` | -21.93 | 8.269 |
| 7 | `NC(=O)Cn1ccc(NC(=O)C2(c3cccc(Cl)c3)CC2)n1` | -28.14 | 5.501 & -11.78 |
| 8 | `CC(C)CC(=O)N(C)CC(=O)Nc1ccc(Br)cn1` | 8.773 | 14.97 |
| 9 | `O=C(Cc1csc(N2CCNC2=O)n1)NCC1(c2ccccc2)CC1` | -4.53 | -40.58 |
| 10 | `CCOc1ccc(CNCCCn2ccnc2)cc1OC` | 1.029 | -19.29 & -6.018 |
| 11 | `Cc1ccoc1C(=O)N1CCOCC2(CCN(c3ncccn3)C2)C1.O=C(O)C(F)(F)F` (stereo not drawn) | 18.01 | -13.93 |
| 12 | `CNC(=O)CS(=O)(=O)Cc1ccc(OC)c(F)c1` | 7.393 | 21.14 |
| 13 | `CCCn1c(SCC(N)=O)nnc1-c1csc2c1CCCC2` | 18 | -0.7692 |
| 14 | `Cc1cc(C(=O)NS(C)(=O)=O)c(C)n1-c1ccccc1` | -20.51 | -12.44 |
| 15 | `Cc1noc(C(C)N2CCN(Cc3cccc(C#N)c3)CC2)n1` (stereo not drawn) | -11.55 | -13.11 |
| 16 | `O=C(CN1CCOC1=O)N1CCc2nnc(-c3ccccc3)n2CC1` | -5.846 & -11.41 | -15.21 |
| 17 | `Cc1cc(C[S+]([O-])CC(=O)NCc2ccccc2)no1` (stereo not drawn) | 15.94 | 16.58 |
| 18 | `CCCN1CCCN(S(=O)(=O)c2cnc3onc(C)c3c2)CC1` | 16.3 & 0.453 | 10.94 |
| 19 | `Cc1cnc2c(C(=O)N(C)Cc3cc(C4CC4)[nH]n3)cnn2c1` | -3.447 | -7.268 |
| 20 | `CS(=O)(=O)CCC(=O)Nc1cnn(-c2ccccc2Cl)c1` | 23.72 | 9.749 |
| 21 | `CCC(C)NC(=O)CS(=O)(=O)Cc1cc(Cl)ccc1OC` (stereo not drawn) | 8.599 & 8.261 | -7.778 |
| 22 | `[H][C@]12CN(Cc3ccc(C)c(C)c3)CC[C@@]1(O)CCN(S(=O)(=O)N(C)C)C2` | -15.45 | -23.58 |
| 23 | `CN(CCc1ccncc1)c1cnn(C)c(=O)c1Br` | -8.908 | 1.831 |
| 24 | `CC(C)(C)c1cc(NC(=O)CN2CCn3c(nnc3C3CC3)C2)on1` | -4.3 | -4.8 |
| 25 | `CCc1nnc(CN2CCC(C3CCCCCN3C(=O)C3CC3)CC2)o1` (stereo not drawn) | -8.495 | -6.15 |
| 26 | `CC(NC(=O)CSCC#N)c1ccc(F)cc1` (stereo not drawn) | -29.73 | -22.25 |
| 27 | `CN(C)c1cc(CNCc2cccc3c2OCCO3)ccn1` | 18.85 | -12.42 |
| 28 | `CC(C)N(C)S(=O)(=O)c1ccc2c(c1)CCN(C(=O)c1cccnn1)C2` | 14.8 | -2.873 |
| 29 | `CCCn1nc(C(=O)NCc2nnc3n2CCC3)ccc1=O` | -31.21 | -23.51 & -13.02 |
| 30 | `CC(C)Cc1nc(CS(=O)(=O)C(C)C(=O)N2CCOCC2)no1` (stereo not drawn) | 1.553 & 8.958 | 10.23 |
| 31 | `Cc1nc(CNC(C(=O)N2CCOCC2)C(C)C)no1` (stereo not drawn) | 11.05 | 1.641 |
| 32 | `Cc1ccc(CC(=O)Nc2ccc(CS(C)(=O)=O)c(F)c2)cc1` | -7.554 | -6.714 |
| 33 | `CN1CCC(Cc2noc(-c3cccc(Oc4ncccn4)c3)n2)CC1` | -9.882 | -3.135 |
| 34 | `O=C(NCCc1nc(-c2ccccn2)no1)c1ccc(C2CCCO2)s1` (stereo not drawn) | 2.191 | 3.113 |
| 35 | `CC(C)c1nn(C)c(N(C)C)c1CNCc1cccc(CN(C)C)c1.Cl` | -0.2073 | -8.253 |
| 36 | `CN(CCN1CCCCCC1)c1nccc(N2CCC(O)C2)n1` (stereo not drawn) | 21.86 & 12.62 | 6.418 |
| 37 | `Cc1cccc(C(=O)Nc2c(C(=O)N(C)C)nn(C)c2C)c1` | -3.398 | 19.17 |
| 38 | `CCc1[nH]c2c(CNC(=O)C3CCCN(C)C3)cc(C)cc2c1C` (stereo not drawn) | 13.6 & 14.8 | -0.672 |
| 39 | `CCc1cc(N2CCC(NC3CN4CCC3CC4)CC2)nc(N(C)C)n1` (stereo not drawn) | -39.6 | -11.01 |
| 40 | `O=C1CCCN1Cc1nnc2n1CCCN(C(=O)c1ccc[nH]1)C2` | 3.942 | 3.599 |
| 41 | `O=C(O)C(F)(F)F.O=C(c1cocn1)N1CCC2(CC1)CC(Oc1ccccn1)CO2` (stereo not drawn) | -4.615 & -23.36 | -9.249 |
| 42 | `O=C(C1CCN(S(=O)(=O)N2CCCC2)CC1)N1CCC2(CC1)OCCO2` | 13.09 | 2.334 |
| 43 | `NC1(CN2CCCCC2)CCCCC1` | 12.4 | 1.96 |
| 44 | `[H][C@@]12COC[C@]1(COCc1cccnc1)CN(C(=O)c1csc(C)n1)C2` | -36.1 & -4.378 | -19.23 & 5.101 |
| 45 | `Cc1cccc(C(C(=O)N(C)Cc2cc(C)no2)N(C)C)c1` (stereo not drawn) | 9.323 | -11.09 & 0.4069 |
| 46 | `c1cc(C2CCN(c3ncnc4c3CCNCC4)CC2)ccn1` | 9.407 & -3.227 | 15.1 |
| 47 | `COc1ncccc1C(=O)N(C)Cc1nc(-c2ccccn2)no1` | -2.002 & 6.479 | 5.962 |
| 48 | `CN(C)S(=O)(=O)c1ccc(CNc2ccc(Cl)cn2)cc1` | 5.756 | 6.209 |
| 49 | `CNC(=O)Nc1cc(-c2ccccc2C)nn1CCO` | -37.45 & -7.542 | -18.36 |
| 50 | `CCN1CCc2[nH]cnc2C12CCN(c1ccc(Cl)cn1)CC2` | -7.08 | -24.59 |
| 51 | `COc1ncc(-c2cc(-c3ccn(C)c3)nc(N)c2C#N)cn1` | -21.06 | -12.21 |
| 52 | `Cc1cc(C)c(C(=O)N(C)CCN(C)C(=O)c2[nH]c(C)cc2C)[nH]1` | -15.41 | -8.457 |
| 53 | `Cn1ccnc1CN1CCC(c2nc3ccccc3n2C)CC1` | -10.3 | -39.33 |
| 54 | `CCn1ccc(C(=O)N(C)Cc2cnn(-c3cccc(OC)c3)c2)n1` | 13.03 | 1.408 |
| 55 | `CCCN1CCCC(O)(c2nc(C)c(COc3ccccc3)s2)CC1` (stereo not drawn) | 11.85 | -11.82 |
| 56 | `N#Cc1cnc(NC2CCN(C(=O)C3CC3)CC2)c(Cl)c1` | 6.739 | -4.184 |
| 57 | `O=C(Cn1cnc(-c2cccs2)cc1=O)Nc1cccnc1` | 29.48 & 6.705 | 6.039 |
| 58 | `Cc1nc(NCC2CC2)nc2c1COCC21CCN(S(=O)(=O)C2CC2)C1` (stereo not drawn) | -32.77 | -2.27 & 1.013 |
| 59 | `O=C(N1CCCC1)N1CCc2onc(COc3cccnc3)c2C1.O=C(O)C(F)(F)F` | -13.31 | 22.04 & 6.376 |
| 60 | `Cc1noc2ncc(S(=O)(=O)Nc3cc(C(C)(C)C)n[nH]3)cc12` | -9.4 | -11.62 |
| 61 | `Cc1noc(CNC(=O)CN(C)c2nc3c(C)ccc(C)c3s2)n1` | 1.897 & -20.8 | -13.44 |
| 62 | `COc1ccc(CN2CCC3(CCN(c4cccnc4)C3=O)C2)cc1.O=C(O)C(F)(F)F.O=C(O)C(F)(F)F` (stereo not drawn) | -1.929 & -4.369 | -8.528 |